US20140294817A1
These are yes or no findings as the source states them, for the method shown. A result given as binding can be weak or reduced; the word gives no strength. Tags and fused reporters may be left off the sequences shown.

Tests used:
Fcγ-receptor IV (mice) [1] = assay: flow cytometry on HeLa cells expressing FcγRIV
Fcγ-receptor IV (mice) [2] = assay: flow cytometry saturation binding curves (FIG. 61D)
Fcγ-receptor IV (mice) [3] = assay: flow cytometry on HeLa cells expressing FcγRIV (FIG. 56E)

Measured: binding

B1: polypeptide comprising a first and second Fc fragment of rabbit IgG in dimeric form (Fc fusion)
chain: GGSHHHHHHGMASMTGGQQMGRDLYDDDDKAPSTCSKPTCPPPELLGGPSVFIFPPKPKDTLMISRTPEVTCVVVDVSQDDPEVQFTWYINNEQVRTARPPLREQQFNSTIRVVSTLPIAHQDWLRGKEFKCKVHNKALPAPIEKTISKARGQPLEPKVYTMGPPREELSSRSVSLTCMINGFYPSDISVEWEKNGKAEDNYKTTPAVLDSDGSYFLYSKLSVPTSEWQRGDVFTCSVMHEALHNHYTQKSISRSPGKDIVRSSKPTCPPPELLGGPSVFIFPPKPKDTLMISRTPEVTCVVVDVSQDDPEVQFTWYINNEQVRTARPPLREQQFNSTIRVVSTLPIAHQDWLRGKEFKCKVHNKALPAPIEKTISKARGQPLEPKVYTMGPPREELSSRSVSLTCMINGFYPSDISVEWEKNGKAEDNYKTTPAVLDSDGSYFLYSKLSVPTSEWQRGDVFTCSVMHEALHNHYTQKSISRSPGK
binds: Fcγ-receptor IV (mice) [1] | Fcγ-receptor IV (mice) [2] | Fcγ-receptor IV (mice) [3]
